Results taken from patent publication US8563713B2, “Antibodies specific to carbamazepine” (priority 2011, dated 2013).
For at least one compound, name, drawing or mass did not settle the structure.

Test system: antibody specific to carbamazepine
Assay: Interference from other drugs in the carbamazepine ELISA assay
Type: binding, rabbit
Conditions: chemical tested at 10.0 μg/ml; procedures of Example 4 (competitive ELISA); tested in duplicate
Protocol: Production of the antibodies of the present disclosure was performed with conventional methods. In brief, the immunogen as prepared in Example 2 was diluted to 1.0 mg/ml in phosphate buffered saline (PBS). 1.0 ml of the immunogen solution was injected into rabbits with complete Freunds adjuvant. After 2-3 weeks, the animal was injected with 1.0 ml of the same immunogen solution with incomplete Freunds adjuvant. The same injection was repeated every other week until acceptable titer was obtained.
The Carbamazepine ELISA was developed with the antibody generated from Example 3. This assay is a competitive micro-immunoassay for determination of carbamazepine in a fluid sample. Carbamazepine in the fluid sample and carbamazepine derivative linked with the enzyme (HRP)-conjugate compete for the finite sites of the antibody coated on the solid surface of the microwell. If little or no carbamazepine is present in the fluid sample, more enzyme labeled carbamazepine derivative will bind to the antibody on the solid surface. Conversely, if a large or a significant amount of carbamazepine is present in the fluid sample, less enzyme labeled carbamazepine derivative will bind to the antibody, producing less color signal. The absorbance produced is inversely proportional to the amount of carbamazepine in the fluid sample. […]

CNC1=Nc2ccc(Cl)cc2C(c2ccccc2)=[N+]([O-])C1 [Chlordiazepoxide]
Equivalent Carbamazepine Conc.: <0.1 µg/mL
